Assay results reported in patent US6596778B1, “β-endorphin peptides for treating muscle-wasting diseases” (The University of Birmingham, priority 1997, dated 2003).
For at least one compound, name, drawing or mass did not settle the structure. Some results were stated once for a whole list of compounds, not compound by compound. Where a SMILES comes first, the peptide text is derived from it. Where no end group is shown, it is not given here. [ ]: non-standard residue; d: D form. Sar = CNCC(=O)O

Test system: mouse diaphragm muscle
Format: cell-based, mice, C57BL/6j strain
Details: for EC50: room temperature, read-out: EC50 for increase in contractile response
Procedure: Adult female mice, 3-4 months of age, of the C57BL/6j strain were killed by cervical dislocation and the skin and musculature around the rib cage were removed. The diaphragm and part of the rib cage were carefully dissected out along with a length of the left phrenic nerve. The left hemidiaphragm (together with the left phrenic nerve stump) was pinned out in an organ bath containing oxygenated Krebs solution which was gassed continuously with 95% O2-5% CO2 at room temperature (approximately 20° C.) as described in Khan, S.; Smith, M. E., Muscle Nerve, 18, 1250-1256; 1995. The central tendon was attached with the aid of a silk thread to a force transducer (Dynamometer, model UF1), and the phrenic nerve was introduced into the end of a suction electrode for indirect stimulation.
The phrenic nerve was stimulated continuously at a low frequency (0.5 Hz) with supramaximum square wave pulses of 0.2 msec width using a dual channel stimulator (Digitimer D4030). The muscle was allowed to equilibrate until the responses of the stimulated muscle had reached a constant amplitude (approximately 20 min). Krebs solution ([…]), or a solution ([…]) of the appropriate peptide, was added to the centre of the organ bath whilst the contractions were being recorded.
Direct stimulation of the muscle was effected by two stainless steel needle electrodes placed near the centre of the hemidiaphragm. The position of the force transducer was adjusted until a constant resting tension was seen. When direct stimulation of the muscle was employed d-tubocurarine chloride (2.5×10^−6M) was included in the bathing medium to block the acetylcholine (ACh) receptors and prevent indirect stimulation of the muscles via the motor nerve terminals. The phrenic nerve was stimulated continuously at 0.5 Hz, d-tubocurarine was added to the organ bath, and then, when the responses to nerve stimulation had ceased, the muscle was subjected to continuous direct supramaximum stimulation at a frequency of 0.5 Hz. […] The amplitude, time to peak and half relaxation time of the contractions developed in response to indirect and direct stimulation were determined. The half-relaxation time of the contractions was expressed as the time taken for the tension to decline from the maximum amplitude to half maximum. The dose-response curves were analyzed using a Kaloidograph software package to determine the values for EC50 and maximum response. The significance of the results was determined, unless otherwise stated, using ANOVA, with treatment as the grouping factor, followed by the Bonferroni-Dunn post hoc test.

Compound | EC50 (indirect stimulation 0.5 Hz) [nM] | blockade of the agonist's/peptide's effect on contractile responses by NTB (d2-opioid antagonist) (NTB 2.5×10^−7 M, agonist/peptide 2.5×10^−7 M) | effect of both d-opioid agonists present together (each agonist 2.5×10^−7 M) | maximum increase in the response (indirect stimulation 0.5 Hz, mean ± SEM) [%]
NCC(=O)N[C@@H](CCC(N)=O)C(=O)O [glycylglutamine, glycyl-L-glutamine] (H-Gly-Gln-OH) | < 0.1 | – | – | –
CC(C)[C@H](NC(=O)[C@H](CCC(=O)O)NC(=O)[C@H](Cc1ccccc1)NC(=O)[C@@H](C)NC(=O)[C@@H](N)Cc1ccc(O)cc1)C(=O)N[C@H](C(=O)NCC(N)=O)C(C)C [deltorphin II] | – | blocked | no additive effect | 2.4±0.3
Ac-K[dK][Sar]E [β-endorphin28-31 analogue] | < 0.1 | – | – | –
